# Some of the results follow. Many values rest on one well or one pass, so single values are uncertain.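 Imaging used 1,536-well plates; nuclei positive for cleaved PARP by antibody were divided by total DNA-stained nuclei to yield the apoptosis fraction. Doses for screening kept most cells viable, and cell lines differ markedly in resting and induced cleaved-PARP levels.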
# Key:
# Assay in all cases: cleaved PARP positive nuclei fraction relative to DMSO control; melanoma cells; higher = more apoptosis
# Settings in all cases: library dose: low library concentration; 72 h
# 501Mel = test system: 501Mel
# A101D = test system: A101D
# A2058 = test system: A2058
# A375 = test system: A375
# C32 = test system: C32
# CBRC008 = test system: CBRC008 (line from a melanoma biopsy)
# CBRC013 = test system: CBRC013 (line from a melanoma biopsy)
# CBRC014 = test system: CBRC014 (line from a melanoma biopsy)
# CBRC016 = test system: CBRC016 (line from a melanoma biopsy)
# CBRC017 = test system: CBRC017 (line from a melanoma biopsy)
# COLO792 = test system: COLO792
# COLO800 = test system: COLO800
# COLO829 = test system: COLO829
# G361 = test system: G361
# IPC-298 = test system: IPC-298
# IST-MEL1 = test system: IST-MEL1
# LB2518-MEL = test system: LB2518-MEL
# LOXIMVI = test system: LOXIMVI
# MEL-HO = test system: MEL-HO
# CBRC034 = test system: CBRC034 (line from a melanoma biopsy)
SMILES,cleaved PARP positive nuclei fraction (501Mel) [%],cleaved PARP positive nuclei fraction (A101D) [%],cleaved PARP positive nuclei fraction (A2058) [%],cleaved PARP positive nuclei fraction (A375) [%],cleaved PARP positive nuclei fraction (C32) [%],cleaved PARP positive nuclei fraction (CBRC008) [%],cleaved PARP positive nuclei fraction (CBRC013) [%],cleaved PARP positive nuclei fraction (CBRC014) [%],cleaved PARP positive nuclei fraction (CBRC016) [%],cleaved PARP positive nuclei fraction (CBRC017) [%],cleaved PARP positive nuclei fraction (COLO792) [%],cleaved PARP positive nuclei fraction (COLO800) [%],cleaved PARP positive nuclei fraction (COLO829) [%],cleaved PARP positive nuclei fraction (G361) [%],cleaved PARP positive nuclei fraction (IPC-298) [%],cleaved PARP positive nuclei fraction (IST-MEL1) [%],cleaved PARP positive nuclei fraction (LB2518-MEL) [%],cleaved PARP positive nuclei fraction (LOXIMVI) [%],cleaved PARP positive nuclei fraction (MEL-HO) [%],cleaved PARP positive nuclei fraction (CBRC034) [%]
"C[C@]1(O)C[C@@H](c2nc(-c3ccc4ccc(-c5ccccc5)nc4c3)c3c(N)nccn32)C1 + CO[C@@H]1[C@H](N(C)C(=O)c2ccccc2)C[C@H]2O[C@]1(C)n1c3ccccc3c3c4c(c5c6ccccc6n2c5c31)C(=O)NC4 [Midostaurin] (first compound 0.4 µM, partner dose 0.08 µM)",96.5,195,143,524,112,99,210,113,167,94.7,81.6,57.2,33.2,70.1,99.3,79.9,299,53.8,240,
"COc1ccc(C2=N[C@@H](c3ccc(Cl)cc3)[C@@H](c3ccc(Cl)cc3)N2C(=O)N2CCNC(=O)C2)c(OC(C)C)c1 [Nutlin-3] + O=C(O)c1ccc(-c2c[nH]c3ncc(-c4ccccc4)cc23)cc1C1CCCC1 [GSK650394] (first compound 0.1 µM, partner dose 0.16 µM)",243,93.8,60.4,159,80.8,468,152,120,267,138,80.1,141,174,234,60.9,67.8,98.2,67,153,
"Cn1cnc2c(F)c(Nc3ccc(Br)cc3Cl)c(C(=O)NOCCO)cc21 [selumetinib] + O=C(O)c1ccc(-c2c[nH]c3ncc(-c4ccccc4)cc23)cc1C1CCCC1 [GSK650394] (first compound 0.015 µM, partner dose 0.16 µM)",110,30.6,79.8,127,26.1,163,73.8,71,52.5,156,132,43.6,97.1,112,95.4,222,467,82.2,72.3,
"CC1(C)CCC(c2ccc(Cl)cc2)=C(CN2CCN(c3ccc(C(=O)NS(=O)(=O)c4ccc(N[C@H](CCN5CCOCC5)CSc5ccccc5)c(S(=O)(=O)C(F)(F)F)c4)cc3)CC2)C1 + COc1cc2c(Oc3ccc4[nH]c(C)cc4c3F)ncnc2cc1OCCCN1CCCC1 [cediranib] (first compound 0.4 µM, partner dose 0.4 µM)",93,161,53.2,249,196,605,104,471,284,452,687,116,110,109,65.6,68.2,106,111,93,
"C[C@]1(O)C[C@@H](c2nc(-c3ccc4ccc(-c5ccccc5)nc4c3)c3c(N)nccn32)C1 + Cc1cc(N2CCOCC2)cc2[nH]c(-c3c(NC[C@@H](O)c4cccc(Cl)c4)cc[nH]c3=O)nc12 [BMS536924] (first compound 0.4 µM, partner dose 0.2 µM)",235,171,70.7,192,137,267,139,100,109,93.2,138,154,151,110,50.8,162,48.6,125,36.2,
"CCN(CC)CCNC(=O)c1c(C)[nH]c(/C=C2\C(=O)Nc3ccc(F)cc32)c1C [sunitinib] + CO[C@@H]1[C@H](N(C)C(=O)c2ccccc2)C[C@H]2O[C@]1(C)n1c3ccccc3c3c4c(c5c6ccccc6n2c5c31)C(=O)NC4 [Midostaurin] (first compound 0.4 µM, partner dose 0.08 µM)",174,107,88,413,76.1,41.7,326,90.9,125,52,162,133,135,147,174,78.9,64.1,144,40.5,
"C[C@]1(O)C[C@@H](c2nc(-c3ccc4ccc(-c5ccccc5)nc4c3)c3c(N)nccn32)C1 + CC(C)(C)c1cnc(CSc2cnc(NC(=O)C3CCNCC3)s2)o1 [SNS-032] (first compound 0.4 µM, partner dose 0.01 µM)",107,81.1,93.2,221,88.1,356,99.8,94.8,79.5,118,70.1,169,128,79.3,93,84.9,221,122,77.8,
"Cn1cnc2c(F)c(Nc3ccc(Br)cc3Cl)c(C(=O)NOCCO)cc21 [selumetinib] + NC(=O)Nc1cc(-c2cccc(F)c2)sc1C(=O)N[C@H]1CCCNC1 [AZD7762] (first compound 0.015 µM, partner dose 0.02 µM)",134,91.1,138,113,85.2,160,116,66.8,66.4,97.6,67.6,111,57,115,73.2,50,162,49.7,61.7,
"CCCCCCCCc1ccc(CCC(N)(CO)CO)cc1 [fingolimod] + O=C(Nc1cccc(Cl)c1)Nc1ncc(CCNc2ncnc3ccsc23)s1 [SNS314] (first compound 2 µM, partner dose 0.0008 µM)",186,100,68.5,406,175,190,119,492,27.8,158,139,77.5,89.2,164,91,78.4,129,35.1,70.9,
"COc1ccc(C2=N[C@@H](c3ccc(Cl)cc3)[C@@H](c3ccc(Cl)cc3)N2C(=O)N2CCNC(=O)C2)c(OC(C)C)c1 [Nutlin-3] + NC(=O)Nc1cc(-c2cccc(F)c2)sc1C(=O)N[C@H]1CCCNC1 [AZD7762] (first compound 0.1 µM, partner dose 0.02 µM)",87.5,105,76.6,279,158,213,120,110,73.5,143,51.8,106,75.9,69,81.9,18.3,85.2,54.6,61.5,
"C[C@]1(O)C[C@@H](c2nc(-c3ccc4ccc(-c5ccccc5)nc4c3)c3c(N)nccn32)C1 + Nc1ncn([C@H]2C[C@H](O)[C@@H](CO)O2)c(=O)n1 [decitabine] (first compound 0.4 µM, partner dose 0.1 µM)",48.7,98.8,60.6,358,141,174,,124,33.5,52.9,29.7,152,96.4,134,59.1,137,80.1,45.3,136,67.7
"CC(=O)O[C@@]12CO[C@@H]1C[C@H](O)[C@@]1(C)C(=O)[C@H](O)C3=C(C)[C@@H](OC(=O)[C@H](O)[C@@H](NC(=O)OC(C)(C)C)c4ccccc4)C[C@@](O)([C@@H](OC(=O)c4ccccc4)[C@H]21)C3(C)C [Docetaxel] + O=C(CCCCCCC(=O)Nc1ccccc1)NO [vorinostat] (first compound 0.0001 µM, partner dose 0.08 µM)",218,117,4980,6130,199,281,102,197,158,224,1230,637,160,1070,93.9,319,128,128,58.2,
"NC1(c2ccc(-c3nc4ccn5c(=O)[nH]nc5c4cc3-c3ccccc3)cc2)CCC1 + CC1(C)NC(=O)N(c2ccc([N+](=O)[O-])c(C(F)(F)F)c2)C1=O [nilutamide] (first compound 0.4 µM, partner dose 1 µM)",141,570,134,55.6,101,64.3,70.4,76.1,65.1,81.2,178,107,68,76,174,74.7,111,49.1,244,
"CCN(CC)CCNC(=O)c1c(C)[nH]c(/C=C2\C(=O)Nc3ccc(F)cc32)c1C [sunitinib] + O=C(CCCCCCC(=O)Nc1ccccc1)NO [vorinostat] (first compound 0.4 µM, partner dose 0.08 µM)",202,182,64.1,127,87.4,50.4,239,83.8,114,98.3,20.9,110,176,84.3,47.3,148,125,110,40.4,
"CC(=O)O[C@@]12CO[C@@H]1C[C@H](O)[C@@]1(C)C(=O)[C@H](O)C3=C(C)[C@@H](OC(=O)[C@H](O)[C@@H](NC(=O)OC(C)(C)C)c4ccccc4)C[C@@](O)([C@@H](OC(=O)c4ccccc4)[C@H]21)C3(C)C [Docetaxel] + Cc1ccc(NC(=O)c2cccc(N(C)C)c2)cc1NC(=O)c1ccc(O)cc1 [ZM336372] (first compound 0.0001 µM, partner dose 2 µM)",544,83.8,2720,910,165,553,136,170,159,122,371,336,503,515,72.1,185,124,95.1,112,
"NC(=O)c1ccc(N(C(N)=O)c2c(F)cccc2F)nc1-c1ccc(F)cc1F + CN(NC(=O)CC(=O)NN(C)C(=S)c1ccccc1)C(=S)c1ccccc1 [STA4783] (first compound 0.4 µM, partner dose 0.006 µM)",200,94.2,38.1,4620,170,2820,182,689,225,218,194,82.5,91.5,61,22.9,165,271,56,68,

# Individual results from the list.
# COc1ccc(C2=N[C@@H](c3ccc(Cl)cc3)[C@@H](c3ccc(Cl)cc3)N2C(=O)N2CCNC(=O)C2)c(OC(C)C)c1 [Nutlin-3] + O=C(O)c1ccc(-c2c[nH]c3ncc(-c4ccccc4)cc23)cc1C1CCCC1 [GSK650394] (first compound 0.1 µM, partner dose 0.16 µM) | cleaved PARP positive nuclei fraction (LOXIMVI) [%]: 67
# CCN(CC)CCNC(=O)c1c(C)[nH]c(/C=C2\C(=O)Nc3ccc(F)cc32)c1C [sunitinib] + O=C(CCCCCCC(=O)Nc1ccccc1)NO [vorinostat] (first compound 0.4 µM, partner dose 0.08 µM) | cleaved PARP positive nuclei fraction (CBRC017) [%]: 98.3

# From the supplement of paper PMC4604168 (melanoma cell lines)
